Reference: patent publication US20090209473A1, “Componds and methods for pormoting angiogenesis” (priority 2003, published 2009)

Tested on: Oxygen-induced retinopathy mice
Test: Oxygen-induced retinopathy mouse model, retinal whole mount analysis
Assay type: in vivo
Settings: 100 mg/kg s.c. once daily days 12-16, versus control
Source text: Oxygen-induced retinopathy mice were used to determine the extent and effect of gamma-secretase inhibitors on the angiogenic process. Mice with oxygen induced retinopathy (OIR mice) are a commonly-used model and are described in the literature (see, Smith et al, supra). They are at times referred to as retinopathy of prematurity models or ROP mice. The model takes advantage of the fact that full term mice pups are born with an immature retinal vascularization which matures during the first three weeks of postnatal growth. Briefly, neonatal mice (NMRI/C57b1) from the same litter were placed, with their nursing mother, in a hyperoxic environment (75% oxygen) at age day seven. After exposure to the hyperoxic environment for 5 days, the 12-day old pups were removed to normal air. In the treated mice, DAPT was administered once daily during age days 12-16. Control pups were treated the same way but injected with the vehicle. At post natal day 17 the mice were euthanized and the retinas were prepared for whole mount immunohistochemistry. Except for the mode of injection, the stock solution of DAPT was prepared and administered essentially as described in Lanz et al., (2003, J. Pharmacol. Exp. Ther. 305:864-71). […] This can be quantified in the superficial capillary plexus by counting the number of capillary enclosed areas in the peripheral part of the retina.

C[C@H](NC(=O)Cc1cc(F)cc(F)c1)C(=O)N[C@H](C(=O)OC(C)(C)C)c1ccccc1 [DAPT]
density of GFAP positive astrocytes in retina: Little if any difference
